System: HepaRG
Test: LDH release cytotoxicity, % of total lysis control; higher = more cytotoxic
Conditions: 48 h
Summary of the method: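 Duplicate wells of single-lot HepaRG cells, grown on collagen I-coated 96-well plates, received eight-point half-log series of test chemicals with 100 µM as the top concentration. Exposure lasted 48 h in serum-free induction medium with 0.5% DMSO, while total lysis wells received 0.1% Triton X. Resorufin fluorescence (CytoTox-ONE, Tecan Safire) was used to quantify LDH leaked into 50 µL of spent medium. Values for percent cytotoxicity were normalized to on-plate vehicle and total lysis controls and averaged across the duplicates.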

CCCCCCCCc1ccc(O)cc1 [4-Octylphenol]
Conditions | LDH release cytotoxicity [%]
0.03162 µM | -2.08
0.1 µM | -0.779
0.3162278 µM | -2.32
1 µM | -2.45
3.16228 µM | -1.84
10 µM | -1.93
31.6228 µM | -1.5
100 µM | 11.3
